Experimental findings from patent publication US11653679B2, “High-purity steviol glycosides” (PureCircle Sdn Bhd, priority 2014, dated 2023) are described below.

Some entries repeat one wording, which the source may state once for all of them.

For the data set, the system named is Isolase. Nature of the data set: Stability of rebaudiosides in the presence of Isolase (Example 50). The class given is biochemical. Conditions: 1 mM, pH 4.5, 30° C., 24 h.
`C=C1C[C@@]23CC[C@H]4[C@@](C)(CCC[C@@]4(C)C(=O)O[C@@H]4O[C@H](CO)[C@@H](O)[C@H](O)[C@H]4O)[C@@H]2CC[C@]1(O[C@@H]1O[C@H](CO)[C@@H](O)[C@H](O[C@@H]2O[C@H](CO)[C@@H](O)[C@H](O)[C@H]2O)[C@H]1O[C@@H]1O[C@H](CO)[C@@H](O)[C@H](O)[C@H]1O)C3` [Rebaudioside A, reference compound]: the “conversion of rebaudioside in the presence of Isolase” value (from here on “conversion of rebaudioside”) is “no significant conversion”.

For `C=C1C[C@@]23CC[C@H]4[C@@](C)(CCC[C@@]4(C)C(=O)O[C@@H]4O[C@H](CO)[C@@H](O)[C@H](O)[C@H]4O[C@@H]4O[C@H](CO)[C@@H](O)[C@H](O)[C@H]4O)[C@@H]2CC[C@]1(O[C@@H]1O[C@H](CO)[C@@H](O)[C@H](O[C@@H]2O[C@H](CO)[C@@H](O)[C@H](O)[C@H]2O)[C@H]1O[C@@H]1O[C@H](CO)[C@@H](O)[C@H](O)[C@H]1O)C3` [Rebaudioside D], the “conversion of rebaudioside” value is given as “no significant conversion”.

For the compound `C=C1C[C@@]23CC[C@H]4[C@@](C)(CCC[C@@]4(C)C(=O)O[C@@H]4O[C@H](CO)[C@@H](O)[C@H](O[C@@H]5O[C@H](CO)[C@@H](O)[C@H](O)[C@H]5O)[C@H]4O[C@@H]4O[C@H](CO)[C@@H](O)[C@H](O)[C@H]4O)[C@@H]2CC[C@]1(O[C@@H]1O[C@H](CO)[C@@H](O)[C@H](O[C@@H]2O[C@H](CO)[C@@H](O)[C@H](O)[C@H]2O)[C@H]1O[C@@H]1O[C@H](CO)[C@@H](O)[C@H](O)[C@H]1O)C3` [reb M, Rebaudioside M], the “conversion of rebaudioside” value is reported as “no significant conversion”.
